# Results as given in US20260250318A1, “COMPOSITIONS AND METHODS FOR CROSSING THE BLOOD BRAIN BARRIER” (VOYAGER THERAPEUTICS, INC., priority 2022, published 2026).
# B1: TTM-019: AAV9 capsid variant, full length capsid sequence of Table 4 (protein)
# chain: MAADGYLPDWLEDNLSEGIREWWALKPGAPQPKANQQHQDNARGLVLPGYKYLGPGNGLDKGEPVNAADAAALEHDKAYDQQLKAGDNPYLKYNHADAEFQERLKEDTSFGGNLGRAVFQAKKRLLEPLGLVEEAAKTAPGKKRPVEQSPQEPDSSAGIGKSGAQPAKKRLNFGQTGDTESVPDPQPIGEPPAAPSGVGSLTMASGGGAPVADNNEGADGVGSSSGNWHCDSQWLGDRVITTSTRTWALPTYNNHLYKQISNSTSGGSSNDNAYFGYSTPWGYFDFNRFHCHFSPRDWQRLINNNWGFRPKRLNFKLFNIQVKEVTDNNGVKTIANNLTSTVQVFTDSDYQLPYVLGSAHEGCLPPFPADVFMIPQYGYLTLNDGSQAVGRSSFYCLEYFPSQMLRTGNNFQFSYEFENVPFHSSYAHSQSLDRLMNPLIDQYLYYLSKTVNGHDSPHSKAQNQQTLKFSVAGPSNMAVQGRNYIPGPSYRQQRVSTTVTQNNNSEFAWPGASSWALNGRNSLMNPGPAMASHKEGEDRFFPLSGSLIFGKQGTGRDNVDADKVMITNEEEIKTTNPVATESYGQVATNHQSAQAQAQTGWVQNQGILPGMVWQDRDVYLQGPIWAKIPHTDGNFHPSPLMGGFGMKHPPPQILIKNTPVPADPPTAFNKDKLNSFITQYSTGQVSVEIEWELQKENSKRWNPEIQYTSNYYKSNNVEFAVNTEGVYSEPRPIGTRYLTRNL
# B2: TTM-018: AAV9 capsid variant, full length capsid sequence of Table 4 (protein)
# chain: B1 chain with V451I, Q464L
# Experiment: LC-MS serine phosphorylation of capsid variants
# Settings: across the capsid variant
row,Molecule,overall serine phosphorylation
1,B1,4.7%
2,B2,1.9%

# Residue numbers refer to the chain shown, from its start.
